6 molecules from article PMC12390755 can be followed below.

Results are given in words; binding and its absence hold for the method and conditions named. Binding seen in cells or lysates may run through a third protein. Here binding means that the protein was enriched with, or labelled near, the bait; the list need not be complete. For part of these data: A no says only that the protein was not detected with the bait. For part of these data: Sequences can lack the tags named with a protein.

The target of assay [1] is T1, Flag-HA-RPP25 (UniProt Q9BUL9).
T1 sequence: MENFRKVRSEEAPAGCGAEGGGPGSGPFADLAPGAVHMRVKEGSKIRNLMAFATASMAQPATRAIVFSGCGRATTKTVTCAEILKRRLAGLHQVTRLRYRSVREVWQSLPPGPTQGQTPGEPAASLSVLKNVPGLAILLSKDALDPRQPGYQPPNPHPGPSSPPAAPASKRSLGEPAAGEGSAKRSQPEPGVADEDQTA
The assay is described as follows: affinity purification with mass spectrometry; tandem purification (anti-Flag M2 gel, Flag peptide elution, then anti-HA magnetic beads, HA peptide elution) of Flag-HA-RPP25 from HEK293T lysate; lysis in 300 mM KCl, 0.1% IGEPAL, washes at 300 and 150 mM KCl; against mock control.

The target in assay [2] is Rmp24-3×Flag. Kind of assay: affinity purification with mass spectrometry; single anti-Flag M2 purification of 3×Flag-tagged Rmp64, Rmp24 or Rpp21 from E14 mESC lysate; lysis in 300 mM KCl, 0.1% IGEPAL, washes at 300 and 150 mM KCl, Flag peptide elution; against mock control.
For assay [3], the target named is T2, Rmp64-3×Flag (UniProt Q8R2U2).
T2 sequence: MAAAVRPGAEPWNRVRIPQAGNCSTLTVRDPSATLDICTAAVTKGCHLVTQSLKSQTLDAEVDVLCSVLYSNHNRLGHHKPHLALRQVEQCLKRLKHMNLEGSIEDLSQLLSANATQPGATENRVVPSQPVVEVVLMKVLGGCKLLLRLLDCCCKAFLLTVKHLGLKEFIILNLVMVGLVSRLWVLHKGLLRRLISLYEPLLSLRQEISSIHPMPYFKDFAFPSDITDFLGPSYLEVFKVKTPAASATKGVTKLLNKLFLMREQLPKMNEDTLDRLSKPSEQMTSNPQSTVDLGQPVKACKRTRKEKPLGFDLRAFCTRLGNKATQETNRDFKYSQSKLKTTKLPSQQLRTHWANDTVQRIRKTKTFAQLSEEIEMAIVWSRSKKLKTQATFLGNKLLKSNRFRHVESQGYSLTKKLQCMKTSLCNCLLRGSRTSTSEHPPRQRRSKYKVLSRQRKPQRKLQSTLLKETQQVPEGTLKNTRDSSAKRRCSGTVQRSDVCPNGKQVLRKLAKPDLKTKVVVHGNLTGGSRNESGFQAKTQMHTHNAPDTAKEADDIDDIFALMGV
Described as above.

Assay [4] has as its target T3, Flag-HA-Rpp25 (UniProt Q91WE3).
T3 sequence: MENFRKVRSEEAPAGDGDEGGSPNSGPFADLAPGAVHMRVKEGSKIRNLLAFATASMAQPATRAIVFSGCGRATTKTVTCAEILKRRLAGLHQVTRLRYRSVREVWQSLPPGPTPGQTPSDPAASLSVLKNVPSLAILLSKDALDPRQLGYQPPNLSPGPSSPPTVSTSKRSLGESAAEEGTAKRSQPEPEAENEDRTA
The assay is described as follows: affinity purification with mass spectrometry; tandem purification (anti-Flag M2 gel, Flag peptide elution, then anti-HA magnetic beads, HA peptide elution) of Flag-HA-Rpp25 from E14 mESC lysate; lysis in 300 mM KCl, 0.1% IGEPAL, washes at 300 and 150 mM KCl; against mock control.

Assay [5] addresses T4, Rpp21-3×Flag (UniProt Q8R040).
T4 sequence: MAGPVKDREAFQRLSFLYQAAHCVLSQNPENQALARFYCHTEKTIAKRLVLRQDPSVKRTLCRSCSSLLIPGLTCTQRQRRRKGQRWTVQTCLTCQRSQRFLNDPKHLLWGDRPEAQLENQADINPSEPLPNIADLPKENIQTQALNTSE
Kind of assay: affinity purification with mass spectrometry; single anti-Flag M2 purification of 3×Flag-tagged Rmp64, Rmp24 or Rpp21 from E14 mESC lysate; lysis in 300 mM KCl, 0.1% IGEPAL, washes at 300 and 150 mM KCl, Flag peptide elution; against mock control.

B1: RMP24 (protein, UniProt Q32NC0 1-220)
chain: MRQKHYLEAAARGLHDSCPGQARYLLWAYTSSHDDKSTFEETCPYCFQLLVLDNSRVRLKPKARLTPKIQKLLNREARNYTLSFKEAKMVKKFKDSKSVLLITCKTCNRTVKHHGKSRSFVSTLKSNPATPTSKLSLKTPERRTANPNHDMSGSKGKSPASVFRTPTSGQSVSTCSSKNTSKTKKHFSQLKMLLSQNESQKIPKVDFRNFLSSLKGGLLK
For B1, the binding result in assay [1] is given as “binds”.

B2: Rpp21 (protein, UniProt Q8R040 1-150)
chain: T4 sequence
B2: the binding entry in assay [2] was “no binding”; in assay [3], “no binding”; in assay [4], “binds”.

B3: RPP21 (protein, UniProt Q9H633 1-154)
chain: MAGPVKDREAFQRLNFLYQAAHCVLAQDPENQALARFYCYTERTIAKRLVLRRDPSVKRTLCRGCSSLLVPGLTCTQRQRRCRGQRWTVQTCLTCQRSQRFLNDPGHLLWGDRPEAQLGSQADSKPLQPLPNTAHSISDRLPEEKMQTQGSSNQ
For the molecule B3, in assay [1], the binding result is “binds”.

B4: RMP64 (protein, UniProt Q6NW34 1-567)
chain: MMAAVPPGLEPWNRVRIPKAGNRSAVTVQNPGAALDLCIAAVIKECHLVILSLKSQTLDAETDVLCAVLYSNHNRMGRHKPHLALKQVEQCLKRLKNMNLEGSIQDLFELFSSNENQPLTTKVCVVPSQPVVELVLMKVLGACKLLLRLLDCCCKTFLLTVKHLGLQEFIILNLVMVGLVSRLWVLYKGVLKRLILLYEPLFGLLQEVARIQPMPYFKDFTFPSDITEFLGQPYFEAFKKKMPIAFAAKGINKLLNKLFLINEQSPRASEETLLGISKKAKQMKINVQNNVDLGQPVKNKRVFKEESSEFDVRAFCNQLKHKATQETSFDFKCSQSRLKTTKYSSQKVIGTPHAKSFVQRFREAESFTQLSEEIQMAVVWCRSKKLKAQAIFLGNKLLKSNRLKHLEAQGTSLPKKLECIKTSICNHLLRGSGIKTSKHHLRQRRSQNKFLRRQRKPQRKLQSTLLREIQQFSQGTRKSATDTSAKWRLSHCTVHRTDLYPNSKQLLNSGVSMPVIQTKEKMIHENLRGIHENETDSWTVMQINKNSTSGTIKETDDIDDIFALMGV
Regarding B4, in assay [1], the binding result is “binds”.

B5: Rmp24 (protein, UniProt Q5XFZ0 1-217)
chain: MRQKYYIEAAARGLVGSCPGQARYLLWAYSSTHEDNSTFQETCPHCFQLLVLDNSRVRLKPKAKLTPKIQKLLNREARNDTLSFKEAKLLRKYKDSTSVLLITCRTCNRTVRHHGKSRSFLWALKSNAATAANKASPKTPKRTAPGSANLGQSTNGSKGKSPSLTIRTPTSGQSTPICSSRNGSKRKKHFSQLKALLSQSASDKNPKLDFRHFLSSL
As to B5, the binding entry is listed as “binds” in assay [3], “no binding” in assay [5] and “binds” in assay [4].

B6: Rmp64 (protein, UniProt Q8R2U2 1-564)
chain: T2 sequence
For B6, the values for the binding entry in assay [2], in assay [5] and in assay [4] were “binds”, “no binding” and “binds”, respectively.
